This data set in a line: Isothermal titration calorimetry (ITC), copper complexation of MCC950. The format is binding. As to the method:
Complex formation between the sodium form of MCC950 and copper chloride was tested and detected by using isothermal titration calorimetry (ITC). MCC950 (also known as CRID3) is a sulphonylurea having the formula: […]
An autoITC 200 (GE life sciences) was used to measure the change in heat induced by Cu^2+-MCC950 interactions and data analysed using the MicroCal Origin version 7.0 software package adapted for auto-ITC data analysis.
Copper chloride (5 or 2.5 mM of CuCl2) dissolved in water (miliQ water; Elga) was titrated into a cell containing 0.4 mM MCC950Na also dissolved in water. The titration consisted of 19×2 μL injections at 25° C. As a control EDTA was used, in free acid form or as a sodium di-salt, at a concentration of 0.4 mM. Experiments were replicated three times and results were averaged. Thermograms and binding isotherms were used to determine the enthalpy (ΔH), binding constants (K), stoichiometry (N), and entropy (TΔS) using a single-site binding model. The change in standard Gibbs free energy (ΔG) was calculated using the Gibbs-Helmholz thermodynamic equation: ΔG=−RTInK, where R is the ideal gas constant (1.985 cal mol^−1K^−1) and T is the temperature (298 K).
(ITC needs no label: the signal is the heat of the interaction.)

The mark [1] stands for this setting: ITC, CuCl2 titrated into 0.4 mM MCC950Na in water, 25° C.

SMILES strings stand for the structures.

Regarding `CC(C)(O)c1coc(S(=O)(=O)NC(=O)Nc2c3c(cc4c2CCC4)CCC3)c1` [MCC950], under setting [1], the “TΔS (entropy)” value turned out to be 13.04 ± 0.12 kcal/mol and the “ΔH (enthalpy)” value was determined as 6.56 ± 0.15 kcal/mol. Where the note is “ITC, CuCl2 titrated into 0.4 mM MCC950Na in water, 25° C., single-site binding model”, the “N (stoichiometry)” value was determined as 0.31 ± 0.00. Further, the “ΔG (standard Gibbs free energy)” value (calculated with ΔG=−RTInK, 298 K) was -6.48 ± 0.03 kcal/mol.

Values taken from US11858922B2, “Sulfonylureas and related compounds and use of same” (The University of Queensland, priority 2016, dated 2024).
